Taken from: PubChem BioAssay AID1259405 (NCATS, 2018)

Screen: 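Mouse-designed siRNAs used to find CHO productivity engineering targets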 (primary screen)
System: Chinese hamster CHO-K1 ovary cells with stable secreted eGFP expression
Knock-down reagent: single siRNA against mouse genes, 0.8 pmol siRNA per well (2 µl of 400 nM stock)
Timing: 3 days
Measured: 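Per-well intracellular GFP measured by laser scanning cytometry, plus viability from ATP luminescence, each relative to plate median of non-targeting control wells, in %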
Reading the numbers: GFP, % of control: higher = more GFP per well, higher productivity; viability (ATP), % of control: higher = more viable cells (more ATP)
Call rule: 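Called active when intracellular GFP, relative to negative control, is at or above 120%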
The whole screen tested about 50,000 reagents; this is a part drawn at random. About 4,000 of them (8%) were called active. 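Mouse siRNA library applied to hamster cells; one well for each siRNA.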 Reagents against one gene are numbered here.

Ube2l3 #1 | GFP, % of control = 96.8; viability (ATP), % of control = 86.3; outcome = inactive
Ube2l3 #2 | GFP, % of control = 107; viability (ATP), % of control = 88.2; outcome = inactive
Ube2l3 #3 | GFP, % of control = 81.2; viability (ATP), % of control = 92.3; outcome = inactive
Otop1 #1 | GFP, % of control = 89.5; viability (ATP), % of control = 68.8; outcome = inactive
Otop1 #2 | GFP, % of control = 77.5; viability (ATP), % of control = 73.2; outcome = inactive
Otop1 #3 | GFP, % of control = 51.4; viability (ATP), % of control = 42.7; outcome = inactive
F12 #1 | GFP, % of control = 75.9; viability (ATP), % of control = 98.7; outcome = inactive
F12 #2 | GFP, % of control = 145; viability (ATP), % of control = 88.6; outcome = active
F12 #3 | GFP, % of control = 137; viability (ATP), % of control = 72.8; outcome = active
Ccnh #1 | GFP, % of control = 107; viability (ATP), % of control = 96.5; outcome = inactive
Ccnh #2 | GFP, % of control = 67.7; viability (ATP), % of control = 77.3; outcome = inactive
Dnajb1 #1 | GFP, % of control = 69.6; viability (ATP), % of control = 87.3; outcome = inactive
Dnajb1 #2 | GFP, % of control = 57.4; viability (ATP), % of control = 47.3; outcome = inactive
Dnajb1 #3 | GFP, % of control = 81.2; viability (ATP), % of control = 127; outcome = inactive
Treml4 #1 | GFP, % of control = 85.8; viability (ATP), % of control = 84.1; outcome = inactive
Treml4 #2 | GFP, % of control = 67.7; viability (ATP), % of control = 72.1; outcome = inactive
Treml4 #3 | GFP, % of control = 41.9; viability (ATP), % of control = 46.8; outcome = inactive
